## Primary screen of a compound library

Chains of the proteins cited; added tags and fusions are not shown. Residues count along the entry.
UniProt I6X8D2, whole entry: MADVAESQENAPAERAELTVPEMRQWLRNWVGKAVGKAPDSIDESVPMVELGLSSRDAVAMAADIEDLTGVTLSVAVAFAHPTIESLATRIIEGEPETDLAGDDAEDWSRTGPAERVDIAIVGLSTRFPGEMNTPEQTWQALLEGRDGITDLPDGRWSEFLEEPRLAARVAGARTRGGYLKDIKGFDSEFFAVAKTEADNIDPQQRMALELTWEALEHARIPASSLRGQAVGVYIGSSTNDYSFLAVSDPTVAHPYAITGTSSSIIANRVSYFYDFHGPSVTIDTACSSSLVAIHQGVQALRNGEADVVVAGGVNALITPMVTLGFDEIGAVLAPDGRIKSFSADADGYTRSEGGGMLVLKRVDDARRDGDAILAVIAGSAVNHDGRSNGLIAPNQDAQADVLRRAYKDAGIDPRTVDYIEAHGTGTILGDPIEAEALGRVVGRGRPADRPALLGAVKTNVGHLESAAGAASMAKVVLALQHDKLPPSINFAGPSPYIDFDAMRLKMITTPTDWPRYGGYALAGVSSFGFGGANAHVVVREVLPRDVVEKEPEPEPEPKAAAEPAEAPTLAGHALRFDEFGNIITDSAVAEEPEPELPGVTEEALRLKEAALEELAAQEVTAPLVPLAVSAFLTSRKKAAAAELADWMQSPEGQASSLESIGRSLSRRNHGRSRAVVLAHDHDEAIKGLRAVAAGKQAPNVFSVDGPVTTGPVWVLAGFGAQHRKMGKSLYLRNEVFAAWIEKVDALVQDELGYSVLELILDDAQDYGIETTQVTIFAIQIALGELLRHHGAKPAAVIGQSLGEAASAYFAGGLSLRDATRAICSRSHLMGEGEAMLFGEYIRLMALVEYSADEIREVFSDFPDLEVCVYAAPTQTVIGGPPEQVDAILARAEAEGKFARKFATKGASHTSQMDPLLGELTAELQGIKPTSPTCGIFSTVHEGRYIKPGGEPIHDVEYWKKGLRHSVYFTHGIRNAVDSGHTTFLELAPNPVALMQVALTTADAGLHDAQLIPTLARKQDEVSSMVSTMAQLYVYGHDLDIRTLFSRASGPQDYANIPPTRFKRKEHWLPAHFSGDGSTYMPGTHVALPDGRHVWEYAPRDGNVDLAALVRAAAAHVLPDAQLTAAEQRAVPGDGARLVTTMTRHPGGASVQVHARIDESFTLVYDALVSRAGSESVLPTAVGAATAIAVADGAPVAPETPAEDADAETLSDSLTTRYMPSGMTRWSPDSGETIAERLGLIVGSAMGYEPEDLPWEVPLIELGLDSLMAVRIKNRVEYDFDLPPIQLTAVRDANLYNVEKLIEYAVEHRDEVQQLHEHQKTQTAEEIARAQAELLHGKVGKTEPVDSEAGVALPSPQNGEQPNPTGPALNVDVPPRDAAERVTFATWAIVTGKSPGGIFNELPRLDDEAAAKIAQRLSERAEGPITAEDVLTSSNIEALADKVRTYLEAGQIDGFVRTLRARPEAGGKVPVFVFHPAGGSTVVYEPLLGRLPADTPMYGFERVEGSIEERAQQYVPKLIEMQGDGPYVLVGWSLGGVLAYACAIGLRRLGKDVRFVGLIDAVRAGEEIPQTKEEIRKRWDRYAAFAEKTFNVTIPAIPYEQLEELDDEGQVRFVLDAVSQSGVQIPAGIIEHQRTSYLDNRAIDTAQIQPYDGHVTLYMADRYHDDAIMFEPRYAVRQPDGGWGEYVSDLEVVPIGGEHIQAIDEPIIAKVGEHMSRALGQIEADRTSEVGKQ
UniProt P9WFT3, whole entry: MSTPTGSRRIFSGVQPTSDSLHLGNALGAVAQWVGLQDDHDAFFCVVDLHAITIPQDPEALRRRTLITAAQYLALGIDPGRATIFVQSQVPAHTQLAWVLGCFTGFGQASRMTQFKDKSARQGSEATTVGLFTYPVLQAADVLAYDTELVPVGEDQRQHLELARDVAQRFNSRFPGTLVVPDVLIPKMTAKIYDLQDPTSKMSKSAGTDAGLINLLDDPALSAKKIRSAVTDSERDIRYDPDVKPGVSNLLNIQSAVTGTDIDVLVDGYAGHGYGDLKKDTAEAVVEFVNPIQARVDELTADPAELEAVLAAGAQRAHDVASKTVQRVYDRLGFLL
UniProt P9WNZ1, whole entry: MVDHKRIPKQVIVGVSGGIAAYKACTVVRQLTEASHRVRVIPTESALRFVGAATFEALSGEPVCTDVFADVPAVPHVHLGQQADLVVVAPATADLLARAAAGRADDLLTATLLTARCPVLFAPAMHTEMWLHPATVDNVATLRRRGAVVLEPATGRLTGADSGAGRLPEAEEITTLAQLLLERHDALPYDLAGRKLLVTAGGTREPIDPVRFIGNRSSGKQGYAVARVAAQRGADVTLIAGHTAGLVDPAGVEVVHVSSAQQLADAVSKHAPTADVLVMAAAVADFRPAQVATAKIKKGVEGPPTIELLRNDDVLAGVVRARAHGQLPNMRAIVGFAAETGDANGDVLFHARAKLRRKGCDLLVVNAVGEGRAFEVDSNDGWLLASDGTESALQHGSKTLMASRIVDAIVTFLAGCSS
UniProt Q8IDJ8, 1-583: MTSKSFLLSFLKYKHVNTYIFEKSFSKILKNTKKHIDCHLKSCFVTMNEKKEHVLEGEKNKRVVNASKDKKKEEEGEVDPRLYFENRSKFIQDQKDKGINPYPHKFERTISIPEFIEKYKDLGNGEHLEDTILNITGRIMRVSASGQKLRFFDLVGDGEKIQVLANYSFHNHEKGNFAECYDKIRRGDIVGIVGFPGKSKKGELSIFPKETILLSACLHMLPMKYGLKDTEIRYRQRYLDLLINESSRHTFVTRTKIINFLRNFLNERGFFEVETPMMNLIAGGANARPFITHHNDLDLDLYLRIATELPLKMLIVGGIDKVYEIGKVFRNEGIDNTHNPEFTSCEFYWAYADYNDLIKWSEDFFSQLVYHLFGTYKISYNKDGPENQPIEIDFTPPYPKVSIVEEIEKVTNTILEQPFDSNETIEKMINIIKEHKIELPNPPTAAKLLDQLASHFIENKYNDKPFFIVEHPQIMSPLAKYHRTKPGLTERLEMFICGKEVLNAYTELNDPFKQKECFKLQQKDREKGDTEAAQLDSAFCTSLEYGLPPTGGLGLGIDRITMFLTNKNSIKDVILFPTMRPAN

Data taken from ChEMBL document CHEMBL3988442, “University of Dundee, Small-Polar-MMV Screening Library” (2021).

Each number is a percent effect as filed. How 0% and 100% were set is not recorded. Most values in the screen are low, and negative values occur. This is an unselected part of the compounds tested. A dash means the value is not listed here; it may have been measured.

A: 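Polyketide synthase Pks13, Mycobacterium tuberculosis (UniProt I6X8D2). Enzyme assay of the thioesterase domain of polyketide synthase 13; the read-out is not stated. Tested at 30 µM. Higher reads as stronger inhibition (inferred from which compounds were picked for retests). Of about 67,000 compounds tested this way, about 300 (0.46%) reached 50% or more in at least one test.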
B: 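Enzyme assay of tryptophanyl-tRNA synthetase; the read-out is not stated. Target: Tryptophan-tRNA ligase, Mycobacterium tuberculosis (UniProt P9WFT3). Compounds at 10 µM. Direction is not recorded; retested compounds ran higher, which suggests that high means inhibition. Size under these conditions: about 65,000 compounds, about 64 of them at 50% or above in at least one test.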
C: 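Coenzyme A biosynthesis protein CoaBC, Mycobacterium tuberculosis (UniProt P9WNZ1). Enzyme assay of CoaBC with a phosphate dye (Biomol Green) read at 650 nm. Concentration: 30 µM. Direction is inferred from only a few compounds that gave an IC50; most scored high, so higher reads as stronger inhibition. Most strong results did not repeat in a second test. Of about 67,000 compounds tested this way, about 40 (0.06%) reached 50% or more in at least one test.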
D: 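Lysine-tRNA ligase, Plasmodium falciparum 3D7 (UniProt Q8IDJ8). Enzyme assay of the cytosolic lysyl-tRNA synthetase in 384-well plates, read by luminescence. Compounds at 30 µM. Direction is inferred from only a few compounds that gave an IC50; most scored high, so higher reads as stronger inhibition. About 69,000 compounds were tested under these conditions; 0.071% (about 49) showed 50% or more at least once.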

compound,A,B,C,D
COc1ccc(Oc2ccc(C(F)(F)F)cn2)cc1CN1CCCC1,-16.34%,3.875%,-14.91%,3.035%
O[C@H]1CN(Cc2cccc(C(F)(F)F)c2)CC[C@@]12CCCO2,-16.86%,14.67%,0.7299%,-3.433%
Cn1cc(NC(=O)c2cccc(C(F)(F)F)c2)c(=O)n(C)c1=O,-19.06%,3.612%,-,2.711%
CN(C)CCN(Cc1ccccn1)Cc1ccnn1C1CCCCO1 (configuration not stated),7.87%,-6.802%,-1.595%,0.8869%
CC1(C)Cc2ccccc2-c2nc(NCCCO)[nH]c(=O)c21,62.69%,-0.4772%,-0.2532%,7.847%
Cc1nc(O)cc(CCNC(=O)C2CC(=O)N(CC(C)C)C2)n1 (configuration not stated),-13.5%,0.6606%,-1.988%,6.237%
COc1ccccc1C(NC(=O)C1CCC1)c1noc(C)n1 (configuration not stated),-1.2%,2.058%,-0.4032%,5.613%
COc1ccc(C(=O)N2CC[C@](C)(O)[C@H](C)C2)cc1N1CCOCC1,-11.96%,-0.3173%,0.2481%,2.843%
CCOc1ccc(NC(=O)c2cccc(OC)c2OC)cc1,-19.2%,-6.399%,-7.968%,3.652%
CCn1ncc2c1C(COC)CN(Cc1ccc(C)o1)C2 (configuration not stated),-25.73%,-7.532%,-2.963%,-0.7177%
CC(=O)N1CCN(c2cc(C3CN(C(C)=O)CCO3)nc(C)n2)CC1 (configuration not stated),-6.415%,-,0.8674%,1.331%
Cc1cnn(CC2CCCN2C(=O)c2cccc(F)c2F)c1 (configuration not stated),-23.89%,-0.6246%,-7.775%,2.988%
CN1C(=O)CCCC12CCCN(Cc1cccs1)C2 (configuration not stated),-19.87%,-0.8721%,2.445%,2.046%
Cn1cc(CN2CCOC[C@H]2c2nc(C(C)(C)C)co2)c2ccccc21,-7.348%,-1.907%,3.733%,5.077%
Cc1cc(-c2nccs2)nc(C2CCN(Cc3ccccn3)CC2)n1,2.751%,-4.722%,3.641%,0.2733%
Cc1ccc(CN2C[C@@H]3CN(c4ncc(F)cn4)C[C@@H]3C2)cc1,-14.37%,3.453%,-9.514%,3.861%
O=C([C@H]1C[C@@H]2CN(c3ncc(F)cn3)C[C@H]1O2)N1CCCC1,-7.314%,-,2.351%,2.268%
CCS(=O)(=O)N1CCC(Oc2ccc(C#N)cc2)CC1,-7.838%,2.437%,0.5741%,3.416%
CCCC(NC(=O)c1ccc(OC)cc1C)c1nnn[nH]1 (configuration not stated),-5.421%,3.838%,7.438%,9.378%
Cc1nc(C)n(CC(C)C(=O)N2CCC(N3CCC(O)CC3)CC2)n1 (configuration not stated),-18.13%,-3.622%,1.535%,11.36%
COCC(=O)N1CC[C@H]2C[C@@H](c3nnc(C4CC4)o3)O[C@@H]2C1,-21.1%,1.574%,0.3807%,4.2%
COCCn1c(=O)n(C)c(=O)c2ccc(C3CCN(C(C)=O)CC3)nc21,-1.555%,1.055%,1.726%,1.826%
CN1CCOC(CNCc2cccc(OCc3ccccn3)c2)C1 (configuration not stated),-46.28%,3.541%,-2.571%,1.481%
Cc1nc(N2CCCOC(Cn3cccn3)C2)c2sccc2n1 (configuration not stated),-6.914%,-2.719%,4.087%,0.8286%
COc1ccc(CNCc2ccnc(N3CCCCC3)c2)cc1OC,-2.672%,1.559%,-3.627%,-4.829%
CC(=O)N1CCCC(C(=O)Nc2ccccc2Cc2ccccc2)C1 (configuration not stated),-21.72%,11.76%,4.747%,7.588%
O=S(=O)(c1cc(F)ccc1N1CC(n2cccn2)C1)C(F)(F)F,3.961%,2.78%,8.285%,12.95%
NC(=O)CN(Cc1cccc(Oc2ccccc2)c1)C(=O)C1CC1,-35.14%,0.457%,-4.839%,6.748%
CCC(=O)c1cccc(S(=O)(=O)NC(C)C#N)c1 (configuration not stated),0.2575%,2.053%,1.106%,1.744%
CCn1cnnc1CNC(=O)NCC(C(C)C)N1CCC(C)CC1 (configuration not stated),-9.848%,0.07788%,3.797%,6.097%
Cc1ccc(CNCc2cccc3cn[nH]c23)c(OC2CCOC2)c1 (configuration not stated),-31.2%,1.421%,-13.06%,4.446%
COc1cc(N2CCO[C@H]3[C@@H](Oc4cccnc4)CC[C@@H]32)ncn1,-2.752%,-2.429%,6.157%,3.874%
Cc1nccn1[C@@H]1CC[C@@H](NC(=O)CCOc2ccccc2)[C@H]1O,-10.99%,3.897%,-0.6849%,-0.385%
CNC(=O)c1cnc(/C=C/c2ccc(OC)c(O)c2)s1,30.99%,-5.253%,-5.176%,10.71%
Cc1nccn1CCCn1cncc1-c1ccc2c(c1)CC(C)N2C (configuration not stated),-37.78%,-3.017%,11.87%,2.398%
N#Cc1ccc(OCC(O)CN2CCc3cncnc3C2)cc1 (configuration not stated),-20.09%,37.12%,19.09%,1.293%
Cc1nc2ccccc2nc1CN1CCn2nc(CCC(=O)O)cc2C1,14.76%,3.696%,0.3619%,-3.15%
O=C(NCC1CCCN(Cc2cccc3nonc23)C1)c1ccc[nH]1 (configuration not stated),-0.4086%,-0.7947%,3.78%,-0.1859%
CC(C)(C)CC(NC(=O)c1nc(=O)[nH][nH]1)c1ccc(F)cc1 (configuration not stated),-35.5%,4.944%,-,1.994%
CN1CCN(C(=O)c2cncc(CC3CCCN(C)C3)c2)CC1 (configuration not stated),-40.12%,-3.094%,2.5%,-4.157%
Cc1cnn(C2CCCN(C(=O)CCc3cnn(C)c3)C2)c1 (configuration not stated),-2.937%,-1.847%,-6.579%,-0.006809%
COc1ncccc1CN1CCn2c(C(=O)N3CCCC3)cnc2C1,-31.29%,-3.477%,5.533%,2.069%